In article PMC5503636:
Results are given in words; binding and its absence hold for the method and conditions named. Binding seen in cells or lysates may run through a third protein. Some results given as binding are weak or reduced against the parent protein; the word gives no strength. Where a sequence is shown, tags or fusion partners need not be part of it.

Sequences of proteins named here, by UniProt entry; tags and fusion partners are left off.
UniProt P19793: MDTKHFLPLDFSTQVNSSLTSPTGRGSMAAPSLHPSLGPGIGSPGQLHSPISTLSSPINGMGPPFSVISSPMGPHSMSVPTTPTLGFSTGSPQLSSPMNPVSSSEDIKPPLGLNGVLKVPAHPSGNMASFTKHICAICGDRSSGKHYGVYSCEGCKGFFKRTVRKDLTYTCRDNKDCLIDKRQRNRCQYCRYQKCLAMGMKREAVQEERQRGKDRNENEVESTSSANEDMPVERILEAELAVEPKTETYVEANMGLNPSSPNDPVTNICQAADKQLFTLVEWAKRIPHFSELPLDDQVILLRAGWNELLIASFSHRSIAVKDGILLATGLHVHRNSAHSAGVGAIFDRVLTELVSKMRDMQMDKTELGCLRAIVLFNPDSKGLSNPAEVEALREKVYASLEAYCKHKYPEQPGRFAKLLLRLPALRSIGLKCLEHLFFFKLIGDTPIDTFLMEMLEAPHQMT

Target: retinoid X receptor α (RXRα) (human (endogenous in HCT-116)) (UniProt P19793)
Assay: co-IP; HCT-116 or HCT-116^Sphk2 cells with or without ATRA for 6 h; lysed in RIPA buffer (150 mM NaCl, 5 mM EDTA, 50 mM Hepes pH 7.0, 0.5% deoxycholate, 1% NP-40), 500 uL lysate with 2 ug of specific antibody; western blot of SphK2 and RXRα; which antibody precipitated is not stated

binding: binds
B1: sphingosine kinase 2 (SphK2), transfected (plasmid pWZL-Neo-Myr-Flag-SphK2) (enzyme, UniProt Q9NRA0 1-654)
chain: MNGHLEAEEQQDQRPDQELTGSWGHGPRSTLVRAKAMAPPPPPLAASTPLLHGEFGSYPARGPRFALTLTSQALHIQRLRPKPEARPRGGLVPLAEVSGCCTLRSRSPSDSAAYFCIYTYPRGRRGARRRATRTFRADGAATYEENRAEAQRWATALTCLLRGLPLPGDGEITPDLLPRPPRLLLLVNPFGGRGLAWQWCKNHVLPMISEAGLSFNLIQTERQNHARELVQGLSLSEWDGIVTVSGDGLLHEVLNGLLDRPDWEEAVKMPVGILPCGSGNALAGAVNQHGGFEPALGLDLLLNCSLLLCRGGGHPLDLLSVTLASGSRCFSFLSVAWGFVSDVDIQSERFRALGSARFTLGTVLGLATLHTYRGRLSYLPATVEPASPTPAHSLPRAKSELTLTPDPAPPMAHSPLHRSVSDLPLPLPQPALASPGSPEPLPILSLNGGGPELAGDWGGAGDAPLSPDPLLSSPPGSPKAALHSPVSEGAPVIPPSSGLPLPTPDARVGASTCGPPDHLLPPLGTPLPPDWVTLEGDFVLMLAISPSHLGADLVAAPHARFDDGLVHLCWVRSGISRAALLRLFLAMERGSHFSLGCPQLGYAAARAFRLEPLTPRGVLTVDGEQVEYGPLQAQMHPGIGTLLTGPPGCPGREP
